{"source": "PubChem BioAssay AID1159584 (Peter MacCallum Cancer Centre, 2016)", "purpose": "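Genes whose loss is lethal only together with E-cadherin loss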 (primary screen)", "system": "human MCF10A breast epithelial cells, parental and CDH1-null", "reagent": "siRNA against human genes", "measurement": "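ATP luminescence (CellTiter-Glo) viability per line relative to mean mock wells over all plates, and the ratio of CDH1-null to parental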", "direction": "CDH1-null / parental viability ratio: higher = CDH1-null cells survive relatively better than parental; CDH1-null viability vs mock: higher = more viable CDH1-null cells", "units": "CDH1-null viability vs mock in fraction of mock", "note": "Shown is a random part of about 18,000 deposited reagents. Further read-outs or replicates are left out here. Reagent sequences are not shown. Not stated in the record: the amount of reagent, the time to read-out."}
{"Gene":"HERC2P3 (HERC2 pseudogene 3)","CDH1-null / parental viability ratio":1.39,"CDH1-null viability vs mock":0.92}
{"Gene":"IL21R (interleukin 21 receptor)","CDH1-null / parental viability ratio":0.99,"CDH1-null viability vs mock":0.75}
{"Gene":"WDFY1 (WD repeat and FYVE domain containing 1)","CDH1-null / parental viability ratio":1.14,"CDH1-null viability vs mock":0.96}
{"Gene":"WDR18 (WD repeat domain 18)","CDH1-null / parental viability ratio":0.81,"CDH1-null viability vs mock":0.38}
{"Gene":"AANAT (aralkylamine N-acetyltransferase)","CDH1-null / parental viability ratio":1.19,"CDH1-null viability vs mock":0.5}
{"Gene":"OXT (oxytocin/neurophysin I prepropeptide)","CDH1-null / parental viability ratio":0.85,"CDH1-null viability vs mock":0.63}
{"Gene":"RNPS1 (RNA binding protein with serine rich domain 1)","CDH1-null / parental viability ratio":0.81,"CDH1-null viability vs mock":0.26}
{"Gene":"NCAM1 (neural cell adhesion molecule 1)","CDH1-null / parental viability ratio":0.79,"CDH1-null viability vs mock":0.38}
{"Gene":"PPP2R5C (protein phosphatase 2 regulatory subunit B'gamma)","CDH1-null / parental viability ratio":1.17,"CDH1-null viability vs mock":0.94}
{"Gene":"ANKRD35 (ankyrin repeat domain 35)","CDH1-null / parental viability ratio":0.89,"CDH1-null viability vs mock":0.8}
{"Gene":"C10orf55 (chromosome 10 putative open reading frame 55)","CDH1-null / parental viability ratio":1.03,"CDH1-null viability vs mock":0.94}
{"Gene":"TREML2 (triggering receptor expressed on myeloid cells like 2)","CDH1-null / parental viability ratio":1.01,"CDH1-null viability vs mock":0.75}
{"Gene":"SMAD6 (SMAD family member 6)","CDH1-null / parental viability ratio":0.98,"CDH1-null viability vs mock":0.9}
{"Gene":"TNFAIP2 (TNF alpha induced protein 2)","CDH1-null / parental viability ratio":1.14,"CDH1-null viability vs mock":0.66}
{"Gene":"SFI1 (SFI1 centrin binding protein)","CDH1-null / parental viability ratio":0.98,"CDH1-null viability vs mock":0.59}
{"Gene":"CEP128 (centrosomal protein 128)","CDH1-null / parental viability ratio":0.94,"CDH1-null viability vs mock":1.05}
{"Gene":"SMYD4 (SET and MYND domain containing 4)","CDH1-null / parental viability ratio":0.85,"CDH1-null viability vs mock":0.79}
{"Gene":"DBH (dopamine beta-hydroxylase)","CDH1-null / parental viability ratio":0.86,"CDH1-null viability vs mock":0.82}
{"Gene":"BTN2A3P (butyrophilin subfamily 2 member A3, pseudogene)","CDH1-null / parental viability ratio":1.46,"CDH1-null viability vs mock":1.02}
{"Gene":"SLC3A2","CDH1-null / parental viability ratio":0.89,"CDH1-null viability vs mock":0.89}
{"Gene":"HHIP (hedgehog interacting protein)","CDH1-null / parental viability ratio":0.96,"CDH1-null viability vs mock":0.5}
{"Gene":"SH2B1 (SH2B adaptor protein 1)","CDH1-null / parental viability ratio":0.95,"CDH1-null viability vs mock":0.37}
{"Gene":"OR4K5 (olfactory receptor family 4 subfamily K member 5)","CDH1-null / parental viability ratio":1.16,"CDH1-null viability vs mock":0.74}
{"Gene":"PRSS3 (serine protease 3)","CDH1-null / parental viability ratio":1.16,"CDH1-null viability vs mock":0.96}
{"Gene":"CEPT1 (choline/ethanolamine phosphotransferase 1)","CDH1-null / parental viability ratio":1.02,"CDH1-null viability vs mock":0.98}
{"Gene":"DAZL (deleted in azoospermia like)","CDH1-null / parental viability ratio":1.24,"CDH1-null viability vs mock":1.12}
{"Gene":"MAX (MYC associated transcriptional regulator X)","CDH1-null / parental viability ratio":1.02,"CDH1-null viability vs mock":0.54}
{"Gene":"TRPM5","CDH1-null / parental viability ratio":1.33,"CDH1-null viability vs mock":0.81}
{"Gene":"FOXO1 (forkhead box O1)","CDH1-null / parental viability ratio":0.98,"CDH1-null viability vs mock":0.98}
{"Gene":"CT47A3 (cancer/testis antigen family 47 member A3)","CDH1-null / parental viability ratio":1.36,"CDH1-null viability vs mock":0.87}
{"Gene":"C6orf58 (chromosome 6 open reading frame 58)","CDH1-null / parental viability ratio":0.92,"CDH1-null viability vs mock":0.79}
{"Gene":"OR51E1 (olfactory receptor family 51 subfamily E member 1)","CDH1-null / parental viability ratio":1.15,"CDH1-null viability vs mock":0.93}
{"Gene":"FKBP3 (FKBP prolyl isomerase 3)","CDH1-null / parental viability ratio":0.79,"CDH1-null viability vs mock":0.62}
{"Gene":"TARS3 (threonyl-tRNA synthetase 3)","CDH1-null / parental viability ratio":0.84,"CDH1-null viability vs mock":0.57}
{"Gene":"CAB39 (calcium binding protein 39)","CDH1-null / parental viability ratio":1.27,"CDH1-null viability vs mock":1.13}
{"Gene":"CTRB1 (chymotrypsinogen B1)","CDH1-null / parental viability ratio":1.41,"CDH1-null viability vs mock":0.41}
{"Gene":"INSC (INSC spindle orientation adaptor protein)","CDH1-null / parental viability ratio":0.88,"CDH1-null viability vs mock":0.84}
{"Gene":"HDAC4 (histone deacetylase 4)","CDH1-null / parental viability ratio":0.84,"CDH1-null viability vs mock":0.52}
{"Gene":"CASP10 (caspase 10)","CDH1-null / parental viability ratio":1.42,"CDH1-null viability vs mock":0.68}
{"Gene":"CACTIN (cactin, spliceosome C complex subunit)","CDH1-null / parental viability ratio":1.35,"CDH1-null viability vs mock":0.54}
{"Gene":"CDCA4 (cell division cycle associated 4)","CDH1-null / parental viability ratio":1.12,"CDH1-null viability vs mock":0.82}
{"Gene":"CPNE2 (copine 2)","CDH1-null / parental viability ratio":1.15,"CDH1-null viability vs mock":0.62}
{"Gene":"PIK3CD","CDH1-null / parental viability ratio":0.88,"CDH1-null viability vs mock":0.78}
{"Gene":"WDR33 (WD repeat domain 33)","CDH1-null / parental viability ratio":0.75,"CDH1-null viability vs mock":0.66}
{"Gene":"ACKR5 (atypical chemokine receptor 5)","CDH1-null / parental viability ratio":1.5,"CDH1-null viability vs mock":0.66}

Part of the list above, set out differently.
| Gene | CDH1-null / parental viability ratio | CDH1-null viability vs mock |
| --- | --- | --- |
| WDFY1 (WD repeat and FYVE domain containing 1) | 1.14 | 0.96 |
| WDR18 (WD repeat domain 18) | 0.81 | 0.38 |
